Results published in paper doi:10.1101/2020.10.23.352385.
No constants are given. Whether binding was seen depends on the method and setting. Binding seen in cells or lysates may run through a third protein. Some binding calls cover weakened binding; strength is not graded here.

Protein sequences, listed by entry. Tags and fused reporters are not part of them.
UniProt P33176: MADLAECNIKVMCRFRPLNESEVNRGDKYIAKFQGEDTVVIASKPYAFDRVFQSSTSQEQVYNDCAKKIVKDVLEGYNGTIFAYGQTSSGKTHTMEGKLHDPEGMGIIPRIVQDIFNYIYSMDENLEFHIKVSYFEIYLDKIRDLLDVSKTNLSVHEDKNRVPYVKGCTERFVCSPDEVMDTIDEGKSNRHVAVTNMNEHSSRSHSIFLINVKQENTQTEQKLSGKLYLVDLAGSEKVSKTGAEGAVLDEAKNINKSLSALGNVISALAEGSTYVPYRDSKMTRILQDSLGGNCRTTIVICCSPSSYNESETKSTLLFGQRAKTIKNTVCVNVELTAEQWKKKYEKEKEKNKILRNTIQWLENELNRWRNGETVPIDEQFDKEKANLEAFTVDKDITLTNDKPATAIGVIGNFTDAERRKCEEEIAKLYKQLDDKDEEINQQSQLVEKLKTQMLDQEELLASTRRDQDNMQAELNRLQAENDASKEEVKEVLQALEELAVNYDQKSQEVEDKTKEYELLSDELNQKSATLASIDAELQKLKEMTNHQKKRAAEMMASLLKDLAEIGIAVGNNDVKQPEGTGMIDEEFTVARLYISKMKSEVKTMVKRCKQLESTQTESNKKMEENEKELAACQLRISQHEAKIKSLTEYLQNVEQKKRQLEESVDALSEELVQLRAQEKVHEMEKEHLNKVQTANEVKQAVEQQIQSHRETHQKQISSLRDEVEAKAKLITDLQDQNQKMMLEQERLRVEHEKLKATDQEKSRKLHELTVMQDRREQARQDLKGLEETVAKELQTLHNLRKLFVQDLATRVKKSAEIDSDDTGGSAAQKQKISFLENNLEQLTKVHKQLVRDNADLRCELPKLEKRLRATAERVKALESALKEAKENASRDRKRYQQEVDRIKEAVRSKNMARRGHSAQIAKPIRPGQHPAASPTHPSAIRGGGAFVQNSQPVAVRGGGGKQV
UniProt O00429: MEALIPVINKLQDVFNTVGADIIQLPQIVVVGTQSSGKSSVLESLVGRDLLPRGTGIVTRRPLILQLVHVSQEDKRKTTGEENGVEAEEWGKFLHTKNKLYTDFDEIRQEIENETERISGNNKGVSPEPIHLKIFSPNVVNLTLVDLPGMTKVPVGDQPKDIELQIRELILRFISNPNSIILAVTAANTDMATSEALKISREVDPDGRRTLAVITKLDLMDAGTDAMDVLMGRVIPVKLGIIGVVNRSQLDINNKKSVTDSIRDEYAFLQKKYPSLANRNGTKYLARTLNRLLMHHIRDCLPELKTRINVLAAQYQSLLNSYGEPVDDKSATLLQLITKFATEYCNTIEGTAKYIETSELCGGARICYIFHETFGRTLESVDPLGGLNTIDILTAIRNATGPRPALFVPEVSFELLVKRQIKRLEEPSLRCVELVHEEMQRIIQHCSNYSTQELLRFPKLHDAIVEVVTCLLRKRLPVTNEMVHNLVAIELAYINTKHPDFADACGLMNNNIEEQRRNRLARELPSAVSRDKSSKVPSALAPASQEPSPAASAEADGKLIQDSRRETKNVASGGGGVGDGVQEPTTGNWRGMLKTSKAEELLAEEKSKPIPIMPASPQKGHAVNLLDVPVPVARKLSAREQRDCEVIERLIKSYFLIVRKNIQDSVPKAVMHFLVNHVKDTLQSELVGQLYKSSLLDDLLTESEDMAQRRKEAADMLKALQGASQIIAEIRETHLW

Molecular target: Kinesin family member 5B (human (endogenous in A549 and SK-N-BE(2)C)) (UniProt P33176)
Test: co-IP

binding: binds
Substance: Dynamin-related protein 1 (from UniProt O00429 1-736)
